Assay results

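A p53 response-element beta-lactamase reporter in HCT-116 cells, giving a fitted potency from the FRET ratio after 16 hours.
The concentration series mostly goes up to 66 µM.
Potency is the fitted concentration that gives half the maximal activation; a lower value means a more potent compound.
Calls are based on the whole dose curve, and inconclusive means weak or mixed curves.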

Values are in nM.
All entries here are filed as inconclusive.
Only part of the assay is shown, chiefly results filed as inconclusive.
A potency from a partial, single-point or poor curve is only a rough figure.
Some entries filed as inconclusive have a full curve.
The first word of each remark tells which way the curve ran; it can be opposite to the aim of the assay.

| SMILES | potency (nM) | curve as filed |
|---|---|---|
| `OC(Cc1ccccc1Cl)(Cn1[nH]cnc1=S)C1(Cl)CC1` (stereo not drawn) | 45754 | activator, partial curve, poor fit |
| `Oc1ccc(O)cc1` | 38997 | fluorescent |
| `CC(=O)Oc1ccc(C(c2ccc(OC(C)=O)cc2)c2ccccn2)cc1` | 287 | fluorescent, full curve |
| `O=C1N=C(O)CN1/N=C/c1ccc(-c2ccc([N+](=O)[O-])cc2)o1` | 3542 | rising, full curve |
| `NNC(N)=S` | 21232 | rising, full curve |
| `N[C@@H](Cc1ccc(N(CCCl)CCCl)cc1)C(=O)O` | 17752 | activator, partial curve |
| `ClCc1ccc(Cl)cc1Cl` | 18215 | falling, single point |
| `CCCCCCCCCCCCCCN(CCO)CCO` | 16234 | rising, full curve |
| `CC(C)(C)CC(C)(C)c1ccc(O)c(Cc2ccc(Cl)cc2Cl)c1` | 14101 | falling, partial curve |
| `CC(C)(C)c1ccc(OC2CCCCC2O)cc1` (stereo not drawn) | 4078 | falling, single point |
| `CC(C)CC(C)(O)C#CC(C)(O)CC(C)C` (stereo not drawn) | 11260 | rising, full curve, poor fit |
| `CN(C/C=C/C#CC(C)(C)C)Cc1cccc2ccccc12` | 17752 | rising, partial curve |
| `CNS(=O)(=O)c1cc(C(=O)N2CCC(CCN3C4CCC3CC(n3c(C)nc5ccccc53)C4)(c3cccc(F)c3)CC2)c(Cl)cc1F` (stereo not drawn) | 7252 | rising, full curve |
| `COc1ccc(-c2cc(=S)ss2)cc1` | 445.9 | falling, single point |
| `Nc1cccc(S(=O)(=O)c2cccc(N)c2)c1` | 4078 | activator, partial curve, poor fit |
| `C=CC(=O)OCCOCC(CC)(COCCOC(=O)C=C)COCCOC(=O)C=C` | 23899 | fluorescent, partial curve |
| `Cc1ccc(N=CN(C)C=Nc2ccc(C)cc2C)c(C)c1` | 32373 | rising, partial curve, poor fit |
| `CCCCCCCCCCCCCCCC[N+](C)(C)Cc1ccccc1` | 52984 | - |
| `CC(C)[N+](=O)[O-]` | 2.5 | falling, full curve, poor fit |
| `c1ccc(-c2ccc(C(c3ccccc3)n3ccnc3)cc2)cc1` (stereo not drawn) | 17752 | falling, partial curve, poor fit |
| `C[C@H]1O[C@@H](O[C@H]2[C@@H](O)C[C@H](O[C@H]3[C@@H](O)C[C@H](O[C@H]4CC[C@@]5(C)[C@H](CC[C@@H]6[C@@H]5CC[C@]5(C)[C@@H](C7=CC(=O)OC7)CC[C@]65O)C4)O[C@@H]3C)O[C@@H]2C)C[C@H](O)[C@@H]1O` | 79.3 | rising, full curve |
| `CCCCCCCCCCCC[N+](C)(C)CCOc1ccccc1` | 51352 | single point |
| `C/C=C/C(=O)Oc1c(CCCCCC(C)C)cc([N+](=O)[O-])cc1[N+](=O)[O-]` | 45754 | - |
| `CC1=Nc2ccccc2C1(C)C` | 32433 | rising, partial curve, poor fit |
| `Cc1ccc(O)c(O)c1` | 31484 | rising, partial curve, poor fit |
| `C=CC(=O)OCC(COC(=O)C=C)(COC(=O)C=C)COC(=O)C=C` | 7252 | rising, partial curve |
| `O=c1cc(-c2ccc(O)cc2)oc2cc(O)cc(O)c12` | 18464 | activator, single point |
| `CCCOCC(=Nc1ccc(Cl)cc1C(F)(F)F)n1ccnc1` | 12888 | rising, partial curve, poor fit |
| `CN[C@H]1CC[C@@H](c2ccc(Cl)c(Cl)c2)c2ccc(S(N)(=O)=O)cc21` | 36344 | fluorescent |
| `O=C1NC(=O)c2cc([N+](=O)[O-])ccc21` | 8.2 | falling, full curve, poor fit |
| `ClC1=C(Cl)[C@]2(Cl)[C@@H]3[C@@H](Cl)[C@H]4O[C@H]4[C@@H]3C1(Cl)C2(Cl)Cl` | 45754 | rising, single point |
| `O=C1C=CC(=O)N1c1ccc(Cc2ccc(N3C(=O)C=CC3=O)cc2)cc1` | 51337 | falling, single point |

For reference, 2 entries once more:

* CCCCCCCCCCCCCCN(CCO)CCO : potency 16234 nM (rising, full curve)
* CC(=O)Oc1ccc(C(c2ccc(OC(C)=O)cc2)c2ccccn2)cc1 : potency 287 nM (fluorescent, full curve)

Data taken from PubChem BioAssay AID1963582, deposited by Tox21 (2024).